Experimental data from publication PMC6259099.
No constants are given. Whether binding was seen depends on the method and setting. In cells and extracts the contact can be indirect. Binding calls can cover weak binding; strength is not graded here.

Biological target: T1, Siah1 (UniProt Q920M9)
T1 sequence: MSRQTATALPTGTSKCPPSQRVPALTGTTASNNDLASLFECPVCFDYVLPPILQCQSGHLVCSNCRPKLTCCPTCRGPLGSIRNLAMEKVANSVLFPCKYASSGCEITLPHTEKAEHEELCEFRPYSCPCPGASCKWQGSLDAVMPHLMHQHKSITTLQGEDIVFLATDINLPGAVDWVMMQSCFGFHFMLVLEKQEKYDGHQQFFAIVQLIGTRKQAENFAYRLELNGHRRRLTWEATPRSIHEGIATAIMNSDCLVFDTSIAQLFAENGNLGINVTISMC
Experiment: co-IP; lysates of CSM14.1 cells transiently expressing BAG1 or BAGΔC; lysis buffer 50 mM TRIS-HCl pH 7.4, 150 mM NaCl, 1% Triton-X 100; affinity beads and pulldown antibody against Siah1, 4 °C overnight; immunoblot

Substance | binding
Bcl-2-associated athanogene-1 (BAG1), full length | binds
BAGΔC, C-terminal deletion mutant of BAG1 (domain or fragment) | no binding
